Assay results: patent US20230086702A1, “SUBSTITUTED 2-AMINO-PYRAZOLYL-[1,2,4]TRIAZOLO[1,5A]PYRIDINE DERIVATIVES AND USE THEREOF” (The Johns Hopkins University, priority 2019, published 2023)
For at least one compound, name, drawing or mass did not settle the structure.

Key:
[1] = tested on: DLK/JNK pathway induction (P-JUN) in RGCs; assay: Intravitreal rotenone, P-JUN in RGCs at 24 hrs; type: in vivo, Mice; settings: 15 mM rotenone intravitreally, vs rotenone alone (FIG. 5)
[2] = tested on: retinal ganglion cells (RGCs); assay: Optic nerve crush, RGC survival (RBPMS staining); type: in vivo, C57B6/J animals; settings: 1 μL of 100 mM or 300 mM intravitreally immediately following optic nerve crush injury, retinas extracted 1 month later, vs vehicle (FIG. 9)
Description: Inhibition of DLK and LZK can reduce the neuronal injury response and result in the protection of various neuronal populations from degeneration. Cells can be immunostained for p-cJun S73 (p-JUN), which is an indicator of DLK pathway activation. Accordingly, decreased p-JUN staining compared to a control can be indicative of inhibition of DLK pathway activation. RBPMS can be used to mark retinal ganglion cells (RGCs) and show changes in cell survival (e.g., increased RBPMS staining compared to a control can indicate increased cell survival).
Unilateral optic nerve crush was performed on C57B6/J animals between 6 and 8 weeks of age, followed by intravitreal injection of 8 mM of I-106. A second injection was performed 4 days later. Two weeks after optic nerve crush, animals were sacrificed and retinas were immunostained for RBPMS. Confocal microscopy was used to image RGCs and ImageJ was used to quantify the density of RGCs.
Mice were intravitreally injected with 1 μL of vehicle (DMSO), 100 mM I-81, or 300 mM I-81 immediately following optic nerve crush injury. Retinas were extracted 1 month later and immunofluorescently labelled with anti-RBPMS to mark RGCs, anti-phosphorylated JUN (P-JUN) to examine DLK/JNK pathway induction, and Tuj1 to visualize axons (see FIG. 9).

[3] = tested on: DLK/JNK pathway (P-JUN) in RGCs; assay: Intravitreal colchicine, P-JUN in RGCs at 24 hrs; type: in vivo, Mice; settings: 1 μL of 10 μM or 100 μM colchicine and 1 μL of 4 mM compound intravitreally, 24 hrs (FIG. 8)
RGCs and axons = assay: Intravitreal rotenone, RGC death and axon degeneration at three weeks; type: in vivo, Mice

CC[C@H](C)NC(=O)c1cc(-c2cnn([C@H](c3ccc(C(F)(F)F)nc3)C3CCN(C(=O)OC(C)(C)C)CC3)c2)cn2nc(N)nc12 [Example I-81, tert-Butyl 4-{(4-{2-amino-8-[(2S)-butan-2-ylcarbamoyl][1,2,4]triazolo[1,5-a]pyridin-6-yl}-1H-pyrazol-1-yl)[6-(trifluoromethyl)pyridin-3-yl]methyl}piperidine-1-carboxylate] was tested, and the “DLK pathway upregulation in RGCs (p-cJun staining)” value [1] was “inhibited mitochondrial toxicity induced DLK pathway upregulation in RGCs”, the “protection of RGCs (RBPMS, p-JUN, TUJ1 staining)” value [2] was “protective to RGCs for at least 1 month after optic nerve crush injury” and the “colchicine induced DLK pathway upregulation in RGCs (p-JUN intensity)” value [3] was “inhibited colchicine induced DLK pathway upregulation in RGCs”. The “axon degeneration (Tuj1)” value (RGCs and axons; 15 mM rotenone and 100 mM compound intravitreally, three weeks (FIG. 6A bottom panel)) was “protected” and the “axonal degeneration, axon density in optic nerve head (Tuj1 immunofluorescence)” value (RGCs and axons; 15 mM rotenone with 100 mM compound, three weeks (FIG. 7A, 7B)) was “protected against mitochondrial toxicity-induced axonal degeneration”.
